Measured values taken from the supplement of paper PMC12067093, “Discovery and optimisation of a covalent ligand for TRIM25 and its application to targeted protein ubiquitination” (Chemical Science, 2025).
Some of the results follow.

By UniProt entry, the sequences of proteins in these tests, tags left out. Where a name states a change or a piece, a line headed by the entry shows the natural chain unless it says otherwise.
UniProt O60264, whole entry, looked up: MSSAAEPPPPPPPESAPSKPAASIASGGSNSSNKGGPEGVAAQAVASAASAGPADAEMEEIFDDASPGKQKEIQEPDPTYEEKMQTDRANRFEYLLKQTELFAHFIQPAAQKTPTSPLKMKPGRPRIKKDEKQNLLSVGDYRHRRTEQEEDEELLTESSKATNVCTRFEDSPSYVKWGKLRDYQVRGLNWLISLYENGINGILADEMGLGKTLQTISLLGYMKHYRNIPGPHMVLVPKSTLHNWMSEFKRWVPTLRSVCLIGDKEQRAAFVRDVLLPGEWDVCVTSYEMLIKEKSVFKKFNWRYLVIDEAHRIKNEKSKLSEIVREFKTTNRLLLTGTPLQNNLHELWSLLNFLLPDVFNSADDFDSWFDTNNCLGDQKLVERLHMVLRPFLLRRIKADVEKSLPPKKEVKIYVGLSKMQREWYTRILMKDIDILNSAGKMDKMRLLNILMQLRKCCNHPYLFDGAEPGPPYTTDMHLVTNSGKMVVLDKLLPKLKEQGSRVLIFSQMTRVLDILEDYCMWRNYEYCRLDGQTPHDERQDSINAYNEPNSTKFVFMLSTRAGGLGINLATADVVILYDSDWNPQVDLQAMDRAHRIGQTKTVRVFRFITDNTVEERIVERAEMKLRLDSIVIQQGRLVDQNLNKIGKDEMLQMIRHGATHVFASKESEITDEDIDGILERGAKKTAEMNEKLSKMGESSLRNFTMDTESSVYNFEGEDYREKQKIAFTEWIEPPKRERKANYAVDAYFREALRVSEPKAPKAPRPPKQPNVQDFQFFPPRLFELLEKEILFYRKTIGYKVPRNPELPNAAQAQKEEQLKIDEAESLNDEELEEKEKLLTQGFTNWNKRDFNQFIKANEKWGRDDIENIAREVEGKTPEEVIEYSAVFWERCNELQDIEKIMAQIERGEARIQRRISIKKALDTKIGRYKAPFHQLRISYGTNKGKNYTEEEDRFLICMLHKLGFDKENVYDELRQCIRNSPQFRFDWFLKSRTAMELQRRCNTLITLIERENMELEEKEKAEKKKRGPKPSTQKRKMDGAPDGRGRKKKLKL
UniProt A6NHR9: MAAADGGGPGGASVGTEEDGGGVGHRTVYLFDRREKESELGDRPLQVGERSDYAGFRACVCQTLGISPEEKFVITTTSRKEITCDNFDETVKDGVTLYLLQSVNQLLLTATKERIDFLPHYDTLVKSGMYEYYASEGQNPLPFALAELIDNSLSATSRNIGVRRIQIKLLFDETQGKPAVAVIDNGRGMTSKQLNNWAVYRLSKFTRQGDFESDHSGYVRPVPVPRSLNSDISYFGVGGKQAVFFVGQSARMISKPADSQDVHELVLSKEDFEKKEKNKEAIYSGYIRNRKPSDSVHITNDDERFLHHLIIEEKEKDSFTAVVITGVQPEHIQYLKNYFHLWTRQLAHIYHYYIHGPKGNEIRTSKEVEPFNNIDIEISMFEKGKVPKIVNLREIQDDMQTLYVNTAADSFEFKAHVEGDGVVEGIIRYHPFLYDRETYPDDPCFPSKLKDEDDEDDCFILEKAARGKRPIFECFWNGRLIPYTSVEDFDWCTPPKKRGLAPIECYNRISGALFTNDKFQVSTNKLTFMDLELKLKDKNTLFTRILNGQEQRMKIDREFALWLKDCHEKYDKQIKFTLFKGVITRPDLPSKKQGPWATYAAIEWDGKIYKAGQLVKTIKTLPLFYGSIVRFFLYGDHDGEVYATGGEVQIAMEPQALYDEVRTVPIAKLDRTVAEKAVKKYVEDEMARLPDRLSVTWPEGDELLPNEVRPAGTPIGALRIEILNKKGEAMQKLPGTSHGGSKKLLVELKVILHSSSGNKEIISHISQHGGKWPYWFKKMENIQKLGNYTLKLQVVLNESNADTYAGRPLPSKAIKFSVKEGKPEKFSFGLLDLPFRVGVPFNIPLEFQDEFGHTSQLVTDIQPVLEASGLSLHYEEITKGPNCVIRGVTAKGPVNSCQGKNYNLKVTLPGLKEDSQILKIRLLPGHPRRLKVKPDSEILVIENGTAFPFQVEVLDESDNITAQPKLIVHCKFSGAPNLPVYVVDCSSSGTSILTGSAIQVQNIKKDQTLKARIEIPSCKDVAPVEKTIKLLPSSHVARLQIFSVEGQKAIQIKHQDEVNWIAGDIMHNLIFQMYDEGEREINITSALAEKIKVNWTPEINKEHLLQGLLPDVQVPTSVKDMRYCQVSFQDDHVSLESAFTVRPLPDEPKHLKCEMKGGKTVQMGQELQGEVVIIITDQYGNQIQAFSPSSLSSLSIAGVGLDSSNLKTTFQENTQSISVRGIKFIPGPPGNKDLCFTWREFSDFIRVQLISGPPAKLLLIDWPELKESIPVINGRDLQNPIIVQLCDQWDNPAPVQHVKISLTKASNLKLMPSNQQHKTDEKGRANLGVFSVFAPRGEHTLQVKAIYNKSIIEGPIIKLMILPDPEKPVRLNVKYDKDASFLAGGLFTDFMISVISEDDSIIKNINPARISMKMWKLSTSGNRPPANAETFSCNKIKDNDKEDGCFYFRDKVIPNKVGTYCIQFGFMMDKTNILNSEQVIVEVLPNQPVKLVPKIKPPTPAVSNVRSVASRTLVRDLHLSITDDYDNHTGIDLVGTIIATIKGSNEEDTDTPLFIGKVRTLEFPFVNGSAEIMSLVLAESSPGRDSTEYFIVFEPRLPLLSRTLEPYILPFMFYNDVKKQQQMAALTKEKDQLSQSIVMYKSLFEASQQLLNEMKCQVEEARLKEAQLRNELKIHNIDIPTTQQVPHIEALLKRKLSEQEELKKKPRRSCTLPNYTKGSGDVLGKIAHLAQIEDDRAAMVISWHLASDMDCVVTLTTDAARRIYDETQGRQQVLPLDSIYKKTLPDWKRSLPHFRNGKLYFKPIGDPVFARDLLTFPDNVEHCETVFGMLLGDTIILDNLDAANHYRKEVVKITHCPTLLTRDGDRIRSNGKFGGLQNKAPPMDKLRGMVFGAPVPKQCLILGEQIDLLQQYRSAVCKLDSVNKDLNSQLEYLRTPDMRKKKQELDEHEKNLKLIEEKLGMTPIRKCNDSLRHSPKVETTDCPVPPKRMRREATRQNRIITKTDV
UniProt O95347, whole entry, looked up: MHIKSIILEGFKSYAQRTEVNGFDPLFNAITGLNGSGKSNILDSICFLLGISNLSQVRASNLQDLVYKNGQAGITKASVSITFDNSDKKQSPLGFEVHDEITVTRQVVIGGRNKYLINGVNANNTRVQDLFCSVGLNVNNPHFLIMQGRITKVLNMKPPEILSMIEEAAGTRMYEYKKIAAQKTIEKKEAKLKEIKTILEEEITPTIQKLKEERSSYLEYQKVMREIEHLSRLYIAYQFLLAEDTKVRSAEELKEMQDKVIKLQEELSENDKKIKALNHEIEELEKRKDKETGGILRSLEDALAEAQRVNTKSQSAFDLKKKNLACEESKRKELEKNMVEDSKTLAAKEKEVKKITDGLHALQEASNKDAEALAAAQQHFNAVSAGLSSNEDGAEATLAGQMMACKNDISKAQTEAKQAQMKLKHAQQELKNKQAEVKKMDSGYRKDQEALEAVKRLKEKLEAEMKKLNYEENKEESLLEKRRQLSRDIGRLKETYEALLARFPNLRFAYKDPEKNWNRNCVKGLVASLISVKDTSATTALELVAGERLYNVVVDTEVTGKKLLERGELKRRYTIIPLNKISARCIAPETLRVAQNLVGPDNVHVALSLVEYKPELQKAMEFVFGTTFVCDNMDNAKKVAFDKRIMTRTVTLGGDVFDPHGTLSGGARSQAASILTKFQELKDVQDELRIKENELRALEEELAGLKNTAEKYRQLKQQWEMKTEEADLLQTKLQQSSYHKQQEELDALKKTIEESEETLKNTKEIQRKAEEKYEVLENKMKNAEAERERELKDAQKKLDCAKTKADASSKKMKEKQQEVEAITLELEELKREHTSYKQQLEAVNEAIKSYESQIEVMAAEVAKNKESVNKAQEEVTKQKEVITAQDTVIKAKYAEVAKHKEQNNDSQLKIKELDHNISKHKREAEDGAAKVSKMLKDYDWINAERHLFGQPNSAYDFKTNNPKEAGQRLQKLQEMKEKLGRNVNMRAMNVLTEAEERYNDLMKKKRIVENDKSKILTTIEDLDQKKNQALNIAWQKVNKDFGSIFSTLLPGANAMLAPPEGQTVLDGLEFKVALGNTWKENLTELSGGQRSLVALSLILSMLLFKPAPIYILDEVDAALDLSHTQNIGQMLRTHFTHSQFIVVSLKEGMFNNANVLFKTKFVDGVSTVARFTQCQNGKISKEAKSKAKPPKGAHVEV
UniProt O14745: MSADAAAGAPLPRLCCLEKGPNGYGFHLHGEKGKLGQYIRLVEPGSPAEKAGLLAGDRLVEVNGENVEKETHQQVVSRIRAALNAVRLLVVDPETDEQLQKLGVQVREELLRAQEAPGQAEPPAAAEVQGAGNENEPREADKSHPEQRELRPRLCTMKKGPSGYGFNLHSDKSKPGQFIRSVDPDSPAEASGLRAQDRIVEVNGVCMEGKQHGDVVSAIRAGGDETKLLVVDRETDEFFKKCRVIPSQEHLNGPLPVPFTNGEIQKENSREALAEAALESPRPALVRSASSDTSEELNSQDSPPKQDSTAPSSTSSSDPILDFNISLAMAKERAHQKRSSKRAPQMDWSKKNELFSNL
UniProt Q7Z7L1: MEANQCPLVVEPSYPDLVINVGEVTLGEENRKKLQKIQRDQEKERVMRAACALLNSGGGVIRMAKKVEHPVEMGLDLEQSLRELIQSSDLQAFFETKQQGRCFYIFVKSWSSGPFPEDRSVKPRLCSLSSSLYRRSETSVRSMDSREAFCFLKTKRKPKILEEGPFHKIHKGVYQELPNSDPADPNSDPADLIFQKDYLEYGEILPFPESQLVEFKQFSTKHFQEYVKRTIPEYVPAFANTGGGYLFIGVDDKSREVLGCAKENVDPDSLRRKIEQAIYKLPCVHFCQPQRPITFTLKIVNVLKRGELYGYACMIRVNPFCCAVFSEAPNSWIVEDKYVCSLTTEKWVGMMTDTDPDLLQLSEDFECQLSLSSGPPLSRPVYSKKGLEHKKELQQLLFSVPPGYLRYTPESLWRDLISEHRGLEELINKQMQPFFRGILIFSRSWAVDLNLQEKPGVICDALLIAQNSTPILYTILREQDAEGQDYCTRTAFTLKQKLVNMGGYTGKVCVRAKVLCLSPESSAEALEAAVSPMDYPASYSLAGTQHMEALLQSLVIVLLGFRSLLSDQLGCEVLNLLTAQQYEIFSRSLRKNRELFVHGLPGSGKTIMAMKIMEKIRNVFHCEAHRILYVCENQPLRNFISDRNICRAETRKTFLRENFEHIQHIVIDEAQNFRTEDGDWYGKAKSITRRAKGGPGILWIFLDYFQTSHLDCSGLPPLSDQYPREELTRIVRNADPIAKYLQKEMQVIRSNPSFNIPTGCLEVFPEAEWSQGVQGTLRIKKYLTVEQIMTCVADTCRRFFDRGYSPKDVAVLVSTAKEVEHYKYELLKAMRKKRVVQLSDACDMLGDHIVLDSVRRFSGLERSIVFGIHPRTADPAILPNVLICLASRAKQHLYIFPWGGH
UniProt P78383: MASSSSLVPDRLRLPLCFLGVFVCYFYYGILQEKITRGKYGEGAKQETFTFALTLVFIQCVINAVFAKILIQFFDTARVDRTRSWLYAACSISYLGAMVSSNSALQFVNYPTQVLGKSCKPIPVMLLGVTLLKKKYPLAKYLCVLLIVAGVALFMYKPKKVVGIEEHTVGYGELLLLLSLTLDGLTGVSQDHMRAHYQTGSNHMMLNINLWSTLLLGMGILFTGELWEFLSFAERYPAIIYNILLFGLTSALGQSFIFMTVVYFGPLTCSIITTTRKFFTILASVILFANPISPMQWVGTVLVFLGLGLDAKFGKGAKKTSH
UniProt Q9HAU4, whole entry, looked up: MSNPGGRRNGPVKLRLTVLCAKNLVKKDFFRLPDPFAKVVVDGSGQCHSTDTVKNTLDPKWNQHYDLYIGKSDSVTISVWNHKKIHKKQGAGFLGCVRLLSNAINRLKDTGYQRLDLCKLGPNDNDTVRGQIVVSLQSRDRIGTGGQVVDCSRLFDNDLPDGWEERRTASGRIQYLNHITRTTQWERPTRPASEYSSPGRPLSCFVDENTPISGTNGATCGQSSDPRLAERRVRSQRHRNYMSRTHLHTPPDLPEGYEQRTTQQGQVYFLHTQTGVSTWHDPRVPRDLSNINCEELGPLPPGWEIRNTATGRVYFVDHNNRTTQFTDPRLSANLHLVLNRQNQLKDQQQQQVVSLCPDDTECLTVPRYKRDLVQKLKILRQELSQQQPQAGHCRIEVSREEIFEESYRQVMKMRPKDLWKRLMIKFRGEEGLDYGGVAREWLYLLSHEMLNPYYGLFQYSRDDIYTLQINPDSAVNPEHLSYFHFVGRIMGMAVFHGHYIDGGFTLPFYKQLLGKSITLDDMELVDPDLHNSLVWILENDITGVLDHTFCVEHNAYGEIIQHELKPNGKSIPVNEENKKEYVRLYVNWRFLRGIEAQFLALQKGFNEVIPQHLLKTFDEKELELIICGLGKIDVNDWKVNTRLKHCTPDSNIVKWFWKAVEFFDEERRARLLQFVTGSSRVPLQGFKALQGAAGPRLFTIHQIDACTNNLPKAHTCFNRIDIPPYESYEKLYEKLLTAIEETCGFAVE

Compound: Cc1cc(ccc1-c1ccccc1)C(=O)N1CCCN(CC1)C(=O)CCl [compound 10]
Test: probe-labelled cysteine peptide fold change vs DMSO (competition) (log2 fold change); higher = less target engagement (more negative = stronger competition)
Settings: THP-1, incubation time: 4 h
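Note: competitive profiling in live THP-1 cells: cysteine peptides tagged with an iodoacetamide desthiobiotin (IA-DTB) probe, intensity after compound treatment relative to DMSO-treated cells.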

Target	probe-labelled cysteine peptide fold change (10 µM)	probe-labelled cysteine peptide fold change (50 µM)
SMARCB1_Q12824_147_NSQWVPTLPNSSHHLDAVPCSTTINR (UniProt Q12824)	-0.218	-0.109
SMARCAD1_Q9H4L7_741_IELCAMSEK (UniProt Q9H4L7)	0.0113	-0.00583
SLK_Q9H2G2_993_AELANIERECLNNK (UniProt Q9H2G2)	0.136	-0.273
SNRPB_P14678_43+45_HMNLILCDCDEFRK (UniProt P14678)	0.0132	-0.252
SNRNP200_O75643_1127_MWQSMCPLR (UniProt O75643)	-0.0661	0.03
SLX4_Q8IY92_318_CLDEAEK (UniProt Q8IY92)	-0.0818	0.0245
SLK_Q9H2G2_1212_MTGESECLNPSTQSR (UniProt Q9H2G2)	-0.142	-0.43
SMARCA5_O60264_976_ENVYDELRQCIR (UniProt O60264)	0.287	-0.293
SLC5A6_Q9Y289_577_LLSLLPLSCQK (UniProt Q9Y289)	-0.114	-0.245
SMPD4_Q9NXE4_698_QLPDCIVGEDGLILTPLGR (UniProt Q9NXE4)	0.0446	0.108
SMCHD1_A6NHR9_1445_IKDNDKEDGCFYFR (UniProt A6NHR9)	-0.113	-0.578
SMU1_Q2TAY7_416_NPEHFVVCNR (UniProt Q2TAY7)	0.0652	-0.0854
SMN2_Q16637_123_ETCVVVYTGYGNR (UniProt Q16637)	0.186	0.429
SLC30A1_Q9Y6M5_447_QCCGTLPQAPSGK (UniProt Q9Y6M5)	-0.473	-0.86
SMAD3_P84022_332_YGWHPATVCK (UniProt P84022)	-0.0104	-0.137
SNRNP200_O75643_576_LATYGITVAELTGDHQLCK (UniProt O75643)	0.0912	0.231
SMARCC1_Q92922_462_SVDLGEDNVTEQTNHIIIPSYASWFDYNCIHVIER (UniProt Q92922)	-0.0743	-0.235
SMC2_O95347_585_CIAPETLR (UniProt O95347)	-0.0829	-0.00562
SNRNP40_Q96DI7_72_CSSLQAPIMLLSGHEGEVYCCK (UniProt Q96DI7)	0.131	0.192

Target	probe-labelled cysteine peptide fold change (10 µM)	probe-labelled cysteine peptide fold change (50 µM)
SNRPD2_P62316_46_NNTQVLINCR (UniProt P62316)	0.0588	-0.00654
SMYD5_Q6GMV2_136_LAATEQYHQVLCPGPSQDDPLHPLNK (UniProt Q6GMV2)	-0.0142	-0.404
SLC4A1AP_Q9BWU0_399_EGEELEYEFDEQGHSTWLCR (UniProt Q9BWU0)	0.041	-0.121
SMARCA5_O60264_519_VLDILEDYCMWR (UniProt O60264)	0.0479	0.0111
SMAP2_Q8WU79_196_STAPVMDLLGLDAPVACSIANSK (UniProt Q8WU79)	-0.152	-0.384
SMCHD1_A6NHR9_970_LIVHCK (UniProt A6NHR9)	0.145	-0.0731
SLC9A3R1_O14745_15_LCCLEK (UniProt O14745)	-0.0428	-0.489
SMARCA4_P51532_423_QEVVVCMR (UniProt P51532)	-0.0988	-0.0647
SLFN11_Q7Z7L1_126_LCSLSSSLYR (UniProt Q7Z7L1)	-0.0272	-0.368
SLFN13_Q68D06_884_TADPAILPNILICLASR (UniProt Q68D06)	0.0825	0.0105
SLC35B1_P78383_119_SCKPIPVMLLGVTLLK (UniProt P78383)	-0.681	0.072
SMC4_Q9NTJ3_916_QLDECASAITK (UniProt Q9NTJ3)	0.0503	0.204
SMURF2_Q9HAU4_627_ELELIICGLGK (UniProt Q9HAU4)	0.0707	0.202
SMC1A_Q14683_933_HNLLQACK (UniProt Q14683)	0.0314	-0.0982
SMC2_O95347_132_VQDLFCSVGLNVNNPHFLIMQGR (UniProt O95347)	0.121	0.236
SMPD4_Q9NXE4_164_ASIQECILPDSPLYHNK (UniProt Q9NXE4)	0.00468	0.153
SMN2_Q16637_98_CSAIWSEDGCIYPATIASIDFKR (UniProt Q16637)	-0.222	-0.345
SNRNP200_O75643_1506_DVAHWLGCSATSTFNFHPNVR (UniProt O75643)	0.125	0.238
SMNDC1_O75940_214_VGVGTCGIADKPMTQYQDTSK (UniProt O75940)	0.155	-0.732

No new results follow: an excerpt of the list.
Target	probe-labelled cysteine peptide fold change (10 µM)	probe-labelled cysteine peptide fold change (50 µM)
SMAP2_Q8WU79_196_STAPVMDLLGLDAPVACSIANSK (UniProt Q8WU79)	-0.152	-0.384
SMCHD1_A6NHR9_970_LIVHCK (UniProt A6NHR9)	0.145	-0.0731
SLC9A3R1_O14745_15_LCCLEK (UniProt O14745)	-0.0428	-0.489
SMARCA4_P51532_423_QEVVVCMR (UniProt P51532)	-0.0988	-0.0647
SLFN11_Q7Z7L1_126_LCSLSSSLYR (UniProt Q7Z7L1)	-0.0272	-0.368
SLFN13_Q68D06_884_TADPAILPNILICLASR (UniProt Q68D06)	0.0825	0.0105
SLC35B1_P78383_119_SCKPIPVMLLGVTLLK (UniProt P78383)	-0.681	0.072
SMC4_Q9NTJ3_916_QLDECASAITK (UniProt Q9NTJ3)	0.0503	0.204
SMURF2_Q9HAU4_627_ELELIICGLGK (UniProt Q9HAU4)	0.0707	0.202
SMC1A_Q14683_933_HNLLQACK (UniProt Q14683)	0.0314	-0.0982
SMC2_O95347_132_VQDLFCSVGLNVNNPHFLIMQGR (UniProt O95347)	0.121	0.236
